No constants are given. Whether binding was seen depends on the method and setting. For some of these results: In cells and extracts the contact can be indirect.
Assays:
[1] = molecular target: T1, native Palm1 from brain lysate (UniProt Q9Z0P4); assay: co-IP; from brain lysate with antibodies against the respective other protein; conditions not given
T1 sequence: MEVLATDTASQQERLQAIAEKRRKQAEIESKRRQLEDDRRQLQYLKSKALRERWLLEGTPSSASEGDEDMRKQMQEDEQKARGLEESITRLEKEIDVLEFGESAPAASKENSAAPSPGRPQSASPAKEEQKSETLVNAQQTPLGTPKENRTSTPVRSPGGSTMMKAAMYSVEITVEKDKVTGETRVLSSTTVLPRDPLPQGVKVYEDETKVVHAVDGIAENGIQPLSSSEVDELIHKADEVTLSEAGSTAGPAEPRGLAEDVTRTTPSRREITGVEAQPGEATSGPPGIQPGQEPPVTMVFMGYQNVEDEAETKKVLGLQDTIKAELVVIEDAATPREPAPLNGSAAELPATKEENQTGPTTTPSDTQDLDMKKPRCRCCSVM

By UniProt entry, the sequences of proteins in these tests, tags left out. Where a name states a change or a piece, a line headed by the entry shows the natural chain unless it says otherwise. Residues count along the entry.
UniProt Q62261: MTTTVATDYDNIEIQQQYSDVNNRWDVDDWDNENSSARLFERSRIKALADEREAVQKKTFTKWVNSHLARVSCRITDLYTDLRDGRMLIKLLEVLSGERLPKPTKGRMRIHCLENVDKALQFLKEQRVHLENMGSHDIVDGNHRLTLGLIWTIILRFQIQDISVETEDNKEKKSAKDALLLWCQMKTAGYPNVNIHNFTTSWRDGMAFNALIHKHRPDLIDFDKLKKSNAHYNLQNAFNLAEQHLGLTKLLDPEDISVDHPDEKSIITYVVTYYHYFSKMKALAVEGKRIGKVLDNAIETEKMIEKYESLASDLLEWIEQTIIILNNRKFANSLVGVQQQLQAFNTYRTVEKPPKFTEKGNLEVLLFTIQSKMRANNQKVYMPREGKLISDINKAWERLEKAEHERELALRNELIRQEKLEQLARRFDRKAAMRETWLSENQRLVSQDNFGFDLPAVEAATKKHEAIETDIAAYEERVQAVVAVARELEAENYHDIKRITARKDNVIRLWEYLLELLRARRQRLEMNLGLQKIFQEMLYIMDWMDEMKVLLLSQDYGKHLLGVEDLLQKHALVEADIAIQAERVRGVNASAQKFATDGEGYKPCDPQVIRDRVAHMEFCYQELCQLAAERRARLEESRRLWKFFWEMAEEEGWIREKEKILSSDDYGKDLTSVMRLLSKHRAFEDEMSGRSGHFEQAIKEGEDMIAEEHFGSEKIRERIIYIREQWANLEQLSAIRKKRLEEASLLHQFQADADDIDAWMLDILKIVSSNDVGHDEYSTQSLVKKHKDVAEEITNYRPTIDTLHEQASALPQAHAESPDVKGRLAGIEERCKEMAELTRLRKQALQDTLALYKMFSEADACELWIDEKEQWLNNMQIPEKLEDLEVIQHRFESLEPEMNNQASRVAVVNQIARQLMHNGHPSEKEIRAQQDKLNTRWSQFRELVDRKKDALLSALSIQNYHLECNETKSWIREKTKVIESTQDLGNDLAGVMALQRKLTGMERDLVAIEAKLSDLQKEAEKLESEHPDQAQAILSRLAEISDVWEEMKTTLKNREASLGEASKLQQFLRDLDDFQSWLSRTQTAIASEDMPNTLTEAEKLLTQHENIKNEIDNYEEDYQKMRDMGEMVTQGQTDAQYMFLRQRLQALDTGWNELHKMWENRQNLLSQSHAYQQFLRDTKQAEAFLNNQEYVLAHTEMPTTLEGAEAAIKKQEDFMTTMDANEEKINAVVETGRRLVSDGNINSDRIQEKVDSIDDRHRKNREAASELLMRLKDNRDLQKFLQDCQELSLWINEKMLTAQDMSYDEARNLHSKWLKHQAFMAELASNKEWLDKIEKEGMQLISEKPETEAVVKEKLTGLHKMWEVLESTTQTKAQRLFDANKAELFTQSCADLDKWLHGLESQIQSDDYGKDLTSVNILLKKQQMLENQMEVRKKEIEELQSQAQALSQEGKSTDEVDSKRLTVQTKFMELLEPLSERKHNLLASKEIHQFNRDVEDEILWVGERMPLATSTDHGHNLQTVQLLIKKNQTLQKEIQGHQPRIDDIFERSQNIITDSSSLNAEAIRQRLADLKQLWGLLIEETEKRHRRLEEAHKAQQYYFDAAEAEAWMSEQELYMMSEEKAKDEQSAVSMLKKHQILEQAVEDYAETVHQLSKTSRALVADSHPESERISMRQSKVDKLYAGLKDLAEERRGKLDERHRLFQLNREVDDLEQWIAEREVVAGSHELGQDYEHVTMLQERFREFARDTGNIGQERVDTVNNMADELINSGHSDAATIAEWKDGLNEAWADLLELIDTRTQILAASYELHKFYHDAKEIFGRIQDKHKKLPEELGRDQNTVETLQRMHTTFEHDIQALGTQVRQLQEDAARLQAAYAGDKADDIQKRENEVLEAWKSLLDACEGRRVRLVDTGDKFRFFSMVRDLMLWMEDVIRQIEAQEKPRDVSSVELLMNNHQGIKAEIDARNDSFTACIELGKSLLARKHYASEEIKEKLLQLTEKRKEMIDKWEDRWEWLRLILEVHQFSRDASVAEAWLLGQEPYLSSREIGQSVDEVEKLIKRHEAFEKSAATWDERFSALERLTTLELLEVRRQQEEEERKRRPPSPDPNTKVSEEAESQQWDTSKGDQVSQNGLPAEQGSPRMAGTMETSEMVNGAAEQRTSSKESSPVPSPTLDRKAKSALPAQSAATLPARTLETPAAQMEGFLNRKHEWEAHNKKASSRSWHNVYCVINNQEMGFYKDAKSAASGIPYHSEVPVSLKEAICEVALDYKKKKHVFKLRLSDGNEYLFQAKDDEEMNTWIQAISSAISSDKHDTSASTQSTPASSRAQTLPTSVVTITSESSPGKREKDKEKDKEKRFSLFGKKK
βII-spectrin prey construct G (amino acids 185 to 411): residues 185-411 of Q62261

[2] = molecular target: T2, Palm1(1-263) ΔEx8 splice variant bait (mouse) (UniProt Q9Z0P4); assay: two-hybrid; 1-by-1 test: LexA-DBD baits (pFBL23) and Gal4-AD preys (pP7) in mated diploid yeast (L40ΔGal4 x YHGX13); HIS3 reporter, spots on DO-3 medium with a 3AT series of 0, 1, 2, 5, 10, 20, 50, 100 and 200 mM
T2 sequence: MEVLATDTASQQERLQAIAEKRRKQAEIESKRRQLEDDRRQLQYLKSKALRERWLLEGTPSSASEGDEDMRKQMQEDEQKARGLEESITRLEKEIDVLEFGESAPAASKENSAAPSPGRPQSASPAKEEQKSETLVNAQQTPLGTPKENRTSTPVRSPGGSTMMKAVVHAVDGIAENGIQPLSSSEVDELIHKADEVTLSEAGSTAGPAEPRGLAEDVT

[3] = molecular target: T3, Palm1ΔEx8 bait (Palm1 without exon 8, without the last 13 codons), N-Palm1-LexA-C (mouse) (UniProt Q9Z0P4); assay: as above
T3 sequence: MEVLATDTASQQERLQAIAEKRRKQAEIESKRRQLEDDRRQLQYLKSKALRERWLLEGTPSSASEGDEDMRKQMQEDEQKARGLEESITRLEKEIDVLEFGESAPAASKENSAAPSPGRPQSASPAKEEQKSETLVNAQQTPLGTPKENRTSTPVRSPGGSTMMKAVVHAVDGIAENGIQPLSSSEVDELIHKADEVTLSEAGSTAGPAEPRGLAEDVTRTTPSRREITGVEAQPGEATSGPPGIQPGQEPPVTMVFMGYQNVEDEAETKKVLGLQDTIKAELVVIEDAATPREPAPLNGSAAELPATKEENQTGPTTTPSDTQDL

[4] = molecular target: native βII-spectrin from brain lysate (UniProt Q62261); assay: co-IP; from brain lysate with antibodies against the respective other protein; conditions not given

native βII-spectrin from brain lysate (from UniProt Q62261 1-2363)
binding [1]: no binding

βII-spectrin prey construct G (amino acids 185 to 411) (from UniProt Q62261-1 185-411) (domain or fragment)
binding [2]: no binding | binding [3]: no binding

B1: native Palm1 from brain lysate (protein, UniProt Q9Z0P4 1-383)
chain: MEVLATDTASQQERLQAIAEKRRKQAEIESKRRQLEDDRRQLQYLKSKALRERWLLEGTPSSASEGDEDMRKQMQEDEQKARGLEESITRLEKEIDVLEFGESAPAASKENSAAPSPGRPQSASPAKEEQKSETLVNAQQTPLGTPKENRTSTPVRSPGGSTMMKAAMYSVEITVEKDKVTGETRVLSSTTVLPRDPLPQGVKVYEDETKVVHAVDGIAENGIQPLSSSEVDELIHKADEVTLSEAGSTAGPAEPRGLAEDVTRTTPSRREITGVEAQPGEATSGPPGIQPGQEPPVTMVFMGYQNVEDEAETKKVLGLQDTIKAELVVIEDAATPREPAPLNGSAAELPATKEENQTGPTTTPSDTQDLDMKKPRCRCCSVM
binding [4]: no binding
